From US20250222125A1, “Anti-FGFR2b Antibodies, Conjugates and Methods of Use” (BeiGene, Ltd., priority 2024, published 2025)
Results are given in words; binding and its absence hold for the method and conditions named. Binding calls can cover weak binding; strength is not graded here.

Experiments:
[1] = target: cyno FGFR2b protein (recombinant) (cyno); assay: SPR
[2] = target: soluble human FGFR2b protein (his tag, in-house generated) (human); assay: SPR
[3] = target: cyno FGFR2b protein (recombinant) (cyno); assay: ELISA
[4] = target: human FGFR2b protein (recombinant, coated on ELISA plates) (human); assay: ELISA

Measured: binding

B1: BGAh9179 (antibody, human IgG1, kappa, V domains shown)
VH: QVQLVQSGAEVKKPGASVKVSCKASGYTITDTYIHWVRQAPGQGLEWMGRIDPAEGNTMFASEFQGRVTMTADTSTSTVYMELSSLRSEDTAVYYCARSKIHYDYDEGFAYWGQGTLVTVSS
VL: DIVLTQSPDSLAVSLGERATINCRASESVDDYGYSFLHWYQQKPGQPPKLLIYRASNLESGVPDRFSGSGSGTDFTLTISSLQAEDVAVYYCQQSNQNPRTFGGGTKVEIKR
binds: all assays above

B2: BGAm1371 (antibody, V domains shown)
VH: QVQLKQSGAELVKPGASVKLSCTASGFNIKDTYIHWVKQRPEQGLEWIGRIDPANGNTMFASEFQGKATITAYTSSNTAYMQLSSLTSGDTAVYYCARSKIHYDYDEGFAYWGQGTLVTVSS
VL: NIVLTQSPPSLAVSLGQRATVSCRASESVDDYGYSFLHWYQQKPGQPPKLLIYRASNLESGIPARFSGSGSRTDFTLTINPVETDDVATYYCQQSNQNPRTFGGGTKLEIK
binds: [3] | [4]

B3: BGAm1823 (antibody, V domains shown)
VH: EVQLQQSGAELVKPGASVKISCKASGYAFSIYWMNWVKQRPGKGLEWIGQIYPENGDTNYNGKFKGKATLTADKSSSTAYMHLSSLTSEDSAVYFCARGGFDYWGQGTTLTVSS
VL: NIVMTQSPASLSASVGETVTITCRASENIYSNLAWYQQKQGKSPQLLVYTATNLADGVPSRFSGSGSGTQFSLKINSLQPEDFGSYYCQHFYGILYTFGSGTRLEIK
binds: [3] | [4]

B4: BGAh9239 (antibody, human IgG1, kappa, V domains shown)
VH: QVQLVQSGAEVKKPGSSVKVSCKASGYTFSIYWLNWVRQAPGQGLEWMGQIYPENADTNYSGKFKGRVTITADKSTSTAYMELSSLRSEDTAVYFCARGGFDYWGQGTLVTVSS
VL: DIQMTQSPSSLSASVGDRVTITCRASENIYSNLAWYQQKPGKAPKLLIYTATNLAEGVPSRFSGSGSGTDFTLTISSLQPEDFATYYCQHFYGILYTFGQGTRLEIKR
binds: all assays above
